Measured values taken from article PMC4912613, “A broad analysis of resistance development in the malaria parasite” (Nature Communications, 2016).

Columns and labels:
Type in all cases: cell-based, Plasmodium falciparum
[1] = system: CYTb-G131S (cytb G131S, parent Dd2); assay: Cross-resistance EC50 assay, CYTb-G131S; settings: SYBR green 72 hour assay, synchronized parasites, 384-well format
Text: (§1) To evaluate potential overlapping activity against known antimalarial drug targets, we performed dose-response studies with each compound against our assembled set of drug-resistant lines and their corresponding parents, in an asexual blood stage proliferation assay (Table 1). Comparisons were made to the drug-sensitive strain 3D7 when a parent was unavailable (TM90C2A, W2 and Dd2). As laboratories conducted EC50 assays with different strains and protocols, all comparisons were made between assays from the same laboratory and under the same assay conditions. Compounds displaying >5-fold EC50 shifts relative to the parent or sensitive strain were flagged as having potentially non-novel targets. Average fold shifts per strain ranged from 0.82 to 2.34, with a median of 1.23 indicating there was not common resistance to any one resistant clone. No resistance patterns were observed when classifying the compounds based on chemical structure, but this was not surprising given the diversity of compounds chosen. On the other hand, given that these confirmed compounds were derived from larger unconfirmed hit lists to which some filtration criteria may have been applied (for example, elimination of obvious dihydrofolate reductase inhibitors[32]), some[10][11][12][13] pre-existing bias may exist in the set. […]
(§2) Alternatively, a SYBR Green-based proliferation approach was used for the 72-h assay, as previously described. Briefly, a culture of either synchronized or asynchronous parasitized RBCs (0.3% parasitemia and 4% haematocrit) in screening medium (identical to supplemented medium above except no serum was added) was exposed to serial drug dilutions. Plates were incubated at 37 °C and gassed with 93% N2, 4% CO2 and 3% O2 for 72 h. Following incubation, 10 × SYBR Green I (Invitrogen; supplied in 10,000 × concentration) in lysis buffer ([…], 5 mM EDTA, 0.16% Saponin wt per vol and 1.6% Triton X vol per vol) was added to the wells and the plates were incubated overnight at room temperature before plate reading. EC50 assays were repeated three times, taking the average EC50 value from each assay set, and removing any outliers using a single iteration of Grubbs' test, eliminating values with z-scores above the critical z-value (α=0.05). The raw EC50 values for synchronized parasites assayed in a 384-well format are listed in Supplementary Data 4. The raw EC50 values for asynchronous parasites assayed in a 96 or 1536-well format are listed in Supplementary Data 5.
(§3) EC50 values for each strain were compared with those of the corresponding parent strain to determine fold-shift changes and identify resistance. To minimize the cause variance between assays, all comparisons were conducted between strains assayed under identical conditions. A one-way ANOVA followed by a Dunnet's post-test was conducted in GraphPad Prism to identify significant changes between the parent and resistant strain.

W2 = assay: Cross-resistance EC50 assay, W2 parent; settings: hypoxanthine 48-hour assay; synchronized parasites; 96-well format; strain W2F6 (parent)
Text: Multidrug resistance alleles, including mutations in P. falciparum chloroquine resistance transporter (pfcrt) and P. falciparum multi-drug resistance transporter 1 (pfmdr1) are very common in field isolates. Therefore, we sought to assess the degree to which pre-existing resistance alleles would contribute to a loss of potency for this diverse collection of small molecule compounds. Fifteen clones derived from three main parent lines were chosen to maximize diversity in mutated pathways and genetic backgrounds, thus representing the variety of resistance seen in the field: 3D7 (ref. [23]), W2 (ref. [24]) or Dd2 (ref. [25]). The 3D7 line originates from the clone of a Netherlands clinical isolate strain[23][26] and is generally considered to be drug sensitive, though it does convey resistance to sulfadoxine. Conversely, W2 (ref. [24], [27]) and Dd2 (ref. [25]) are multi-drug-resistant lines originating from the Indochina III/CDC isolate, which contain point mutations in pfcrt as well as amplifications in pfmdr1 and GTP cyclohydrolase.
To evaluate potential overlapping activity against known antimalarial drug targets, we performed dose-response studies with each compound against our assembled set of drug-resistant lines and their corresponding parents, in an asexual blood stage proliferation assay (Table 1). Comparisons were made to the drug-sensitive strain 3D7 when a parent was unavailable (TM90C2A, W2 and Dd2). As laboratories conducted EC50 assays with different strains and protocols, all comparisons were made between assays from the same laboratory and under the same assay conditions. Compounds displaying >5-fold EC50 shifts relative to the parent or sensitive strain were flagged as having potentially non-novel targets. Average fold shifts per strain ranged from 0.82 to 2.34, with a median of 1.23 indicating there was not common resistance to any one resistant clone. No resistance patterns were observed when classifying the compounds based on chemical structure, but this was not surprising given the diversity of compounds chosen. On the other hand, given that these confirmed compounds were derived from larger unconfirmed hit lists to which some filtration criteria may have been applied (for example, elimination of obvious dihydrofolate reductase inhibitors[32]), some[10][11][12][13] pre-existing bias may exist in the set.
The 48-h assay was carried out in a 96-well format following standard methods using the ^3H-hypoxanthine incorporation assay. The raw EC50 values corresponding to this assay can be found in Supplementary Data 3. Briefly, this assay relies on the parasite incorporation of labelled hypoxanthine that is proportional to P. falciparum growth. A culture of parasitized RBCs (0.5% parasitemia with a percentage of ring stage higher than 70% of total parasitemia, 2.0% haematocrit) in RPMI-1640, […] and 5 μM hypoxanthine was exposed to drug serial dilutions. Plates were incubated for 24 h at 37 °C, 5% CO2, 5% O2 and 90% N2. After 24 h of incubation, ^3H-hypoxanthine was added and plates were incubated for an additional 24-h period. After that, parasites were harvested on a glass fibre filter using a TOMTEC Cell Harvester 96. Filters were dried and melt-on scintillator sheets were used to determine the incorporation of ^3H-hypoxanthine. Radioactivity was measured using a microbeta counter. Data were normalized using the incorporation of the positive (parasitized RBCs without drug) and negative (same culture with artesunate at 2 μM) controls. All assays were conducted in triplicate using three independently grown cultures, and EC50 values were determined using the XLfit add-in module for Excel (version 2.3.1) from Grafit (version 5.3.1.3), where parameter h is the assay hill slope, x is the compound concentration and y is the inhibition of growth effect. The XLfit equation is: […]
Alternatively, a SYBR Green-based proliferation approach was used for the 72-h assay, as previously described. […]

[2] = system: ATQ-R5 (cytb F267V, parent 3D7); assay: Cross-resistance EC50 assay, ATQ-R5; settings: SYBR green 72 hour assay, asynchronized parasites, 96-well or 1536-well format
Text: as §1, §2, §3

[3] = system: GNF156R (PfCARL L830V, S1076I and M81I, parent Dd2); assay: Cross-resistance EC50 assay, GNF156R; settings: SYBR green 72 hour assay, asynchronized parasites, 96-well or 1536-well format
Text: as §1, §2, §3

SMILES | CYTb:G131S (Dd2 Parent) Average Hill Slope ([1]; strain CYTb:G131S (Dd2 parent)) | W2F6 (PARENT) Average Hill Slope (W2) | ATQ-R5 (3D7 Parent) Average Hill Slope [2] | GNF156R (Dd2 Parent) Average Hill Slope [3] | CYTb:G131S (Dd2 Parent) Average Hill Slope ([1]; CYTb:G131S strain)
O=C(NCC(CCCN1CCC(c2c[nH]c3ccccc23)CC1)c1ccccc1)Nc1ccc(Cl)c(Cl)c1 (stereo not shown) [MMV029272] | 1.39 | 1.21 | 0.93 | 1.18 | 
COC(=O)c1ccc(C2C3=C(O)CC(c4ccc(F)cc4)CC3=Nc3ccccc3N2C(=O)c2ccccc2)cc1 (stereo not shown) [MMV011438] | 1.43 | 2.02 | 1.54 | 1.38 | 
COc1ccc(-c2nc(NC(=O)Cc3ccc4c(c3)OCCO4)sc2C)cc1 [MMV019719] | 3.15 | 0.83 | 1.77 | 1.25 | 
OC(CNC1CCCCC1)Cn1c2ccccc2c2ccccc21 (stereo not shown) [MMV009063] | 2.26 | 3.30 | 2.00 | 0.99 | 
COc1ccc(C(=O)C2CC2c2ccc(Cl)cc2)cc1 (stereo not shown) [MMV665924] | 2.05 | 2.45 | 1.21 | 1.39 | 
Nc1ncc(-c2cn[nH]c2)cc1-c1nc2ccc(F)cc2[nH]1 [MMV023367] | 3.02 | 0.77 | 2.65 | 2.20 | 
CC(C)c1cccc(C(NC(=O)C2Cc3ccccc3CN2C(=O)c2cccc(N3CCOCC3)c2)C2CCCC2)c1 (stereo not shown) [MMV028038] | 2.37 | 1.74 | 1.31 | 1.39 | 
O=C(Nc1ccsc1C(=O)NC1CCCCC1)c1ccc(F)cc1 [MMV665939] | 6.33 | 0.77 | 3.54 | 2.29 | 
Cc1ccc(Oc2ncccc2C(=O)Cc2cccc3cccnc23)c(C)c1 [MMV020746] | 4.15 | 1.48 | 2.06 | 1.37 | 
CN(C)CCCNCc1ccc(-c2ccc(Cl)c(Cl)c2)o1 [MMV673964] |  | 1.23 | 2.34 | 2.18 | 2.55
COc1cc(-c2nc(-c3ccccc3)c(-c3ccccc3)[nH]2)cc(OC)c1O [MMV020750] | 7.11 | 1.61 | 4.40 | 3.05 | 
CC(NCc1ccccc1)c1cc(Cl)ccc1O (stereo not shown) [MMV665789] | 1.85 | 1.57 | 1.60 | 1.40 | 
CCN(CC)S(=O)(=O)c1ccc(-c2csc(Nc3ccc(C)c(C)c3)n2)cc1 [MMV009108] | 2.18 | 1.42 | 1.51 | 1.51 | 
CN(C)Cc1ccc(-c2cc3c(-c4ccc(CN(C)C)cc4)ccnc3[nH]2)cc1.O=C(O)C(F)(F)F [MMV022224] | 4.03 | 2.20 | 2.77 | 1.43 | 
CCCOCc1cc(CN2CCN(c3cccc(Cl)c3)CC2)c(O)c2ncccc12 [MMV000787] | 2.42 | 1.35 | 2.85 | 1.93 | 
Cc1cc(Nc2ccc(OCc3ccccc3)cc2)nc2cc(O)ccc12 [MMV007181] | 2.29 | 2.26 | 2.23 | 1.34 | 
COc1cc(C(=O)ON=C(N)Cc2cccc3ccccc23)cc(OC)c1OC [MMV666687] | 1.60 | 1.50 | 3.91 | 1.98 | 
Cc1ccc(Cn2c(N3CCC(C(=O)NCc4cccs4)CC3)nc3ccccc32)cc1 [MMV007564] | 2.50 | 2.03 | 1.71 | 2.21 | 
COc1cc2cc(C(=O)Nc3ccccc3)c(N)nc2cc1OC [MMV006767] | 2.15 | 1.70 | 4.53 | 0.69 | 
CC(C)(C)OC(=O)N1CCN(c2ccccc2NC(=O)c2cccc(C(F)(F)F)c2Oc2ccc(F)cc2)CC1 [MMV030666] | 3.69 | 1.43 | 1.18 | 1.09 | 
Cc1ccc(S(=O)(=O)n2cc(-c3ccnc(N)c3)c3cc(Br)cnc32)cc1 [MMV024114] | 1.85 | 1.87 | 2.74 | 1.44 | 
COCCNCC(O)Cn1c2ccc(Cl)cc2c2cc(Cl)ccc21 (stereo not shown) [MMV019017] | 1.85 | 2.53 | 1.22 | 1.21 | 
